The results in this text go back to the supplement of paper PMC3741180, “A Novel High Throughput Biochemical Assay to Evaluate the HuR Protein-RNA Complex Formation” (PLoS ONE, 2013).

Chains of the proteins cited; added tags and fusions are not shown.
UniProt Q15717, whole entry: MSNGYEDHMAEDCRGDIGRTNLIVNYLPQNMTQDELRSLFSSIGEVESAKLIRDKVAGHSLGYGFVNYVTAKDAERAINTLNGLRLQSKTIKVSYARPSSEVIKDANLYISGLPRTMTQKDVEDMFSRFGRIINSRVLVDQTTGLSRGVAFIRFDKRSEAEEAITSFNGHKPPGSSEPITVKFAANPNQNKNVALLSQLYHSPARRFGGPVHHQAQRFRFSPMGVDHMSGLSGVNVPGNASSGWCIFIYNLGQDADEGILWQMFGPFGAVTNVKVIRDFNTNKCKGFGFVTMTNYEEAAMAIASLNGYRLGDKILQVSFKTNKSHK

Structures are written as SMILES. This is one part of the list. This data set is noisy: repeats of one test often differ as much as different tests do.

For this experiment, the target named is HuR (ELAVL1) - TNFalpha ARE RNA complex (UniProt Q15717). The experiment is described as follows: AlphaScreen HuR-RNA complex signal Z-score relative to positive (Bi-TNF, DMSO) controls (Z-score (SD units of positive control)); higher = more complex signal. The conditions noted are these: screen stage: primary screen; compound concentration: 25 nM. A general note: In Alpha technology, singlet oxygen from a donor bead excites a nearby acceptor bead.
Consider `CN1CCC[C@@H]1CCO[C@](C)(c1ccccc1)c1ccc(Cl)cc1`, for which the “AlphaScreen HuR-RNA complex signal Z-score” value was -5.43.

In the case of `O=C(O)c1cccnc1C(=O)O`, the “AlphaScreen HuR-RNA complex signal Z-score” value was found to be 1.99.

`O=C(O)c1ccccc1`: the “AlphaScreen HuR-RNA complex signal Z-score” value is 0.457.

With `C=C[C@@]1(C)CC(=O)[C@@]2(O)[C@](C)(O1)[C@@H](O)[C@@H](O)C1C(C)(C)CC[C@H](O)[C@@]12C` (some centres not stated), the “AlphaScreen HuR-RNA complex signal Z-score” value came to 1.21.

On to `COc1ccc(C(C)=O)c(OC)c1`, for which the “AlphaScreen HuR-RNA complex signal Z-score” value stood at 1.81.

As for `CC(NCCc1ccc(O)cc1)C(O)c1ccc(O)cc1` (configuration not stated), the “AlphaScreen HuR-RNA complex signal Z-score” value came to 0.519.

With `CCC1(C)CC(=O)NC1=O` (configuration not stated), the “AlphaScreen HuR-RNA complex signal Z-score” value worked out at 0.565.

Take `NC[C@@H]1O[C@H](O[C@H]2[C@@H](O)[C@H](O[C@@H]3[C@@H](O)[C@H](N)C[C@H](N)[C@H]3O[C@H]3O[C@H](CN)[C@@H](O)[C@H](O)[C@H]3N)O[C@@H]2CO)[C@H](N)[C@@H](O)[C@@H]1O`: the “AlphaScreen HuR-RNA complex signal Z-score” value amounted to 4.89.

Take `CCCCS(=N)(=O)CCC(N)C(=O)O` (configuration not stated): the “AlphaScreen HuR-RNA complex signal Z-score” value was 2.03.

`CC(=O)O[C@@H]1CC2C(C)(C)[C@H](O)CC[C@]2(C)C2CC[C@@]3(C)[C@H](c4ccoc4)OC(=O)C4OC43[C@@]21C` (stereo partly drawn) [alpha-DIHYDROGEDUNOL]: the “AlphaScreen HuR-RNA complex signal Z-score” value amounted to 2.26.

Consider `CC(=O)Oc1ccc(C(c2ccc(OC(C)=O)cc2)c2ccccn2)cc1`, for which the “AlphaScreen HuR-RNA complex signal Z-score” value was 0.315.

For `CC1(C)CC2C1CC[C@]1(CBr)CCC3C(CC(=O)O)C(=O)O[C@@]32C1` (some centres not stated) [BROMO-3-HYDROXY-4-(SUCCIN-2-YL)-CARYOLANE gamma-LACTONE], the “AlphaScreen HuR-RNA complex signal Z-score” value was found to be 0.879.

Take `CCCc1nn(C)c2c(=O)[nH]c(-c3cc(S(=O)(=O)N4CCN(C)CC4)ccc3OCC)nc12`: the “AlphaScreen HuR-RNA complex signal Z-score” value turned out to be 1.4.

In the case of `O=C1CC[C@]23/C=C/C(=O)NCCCCNCCCNC(=O)/C=C/c4ccc(c2c4)O[C@@H]3C1`, the “AlphaScreen HuR-RNA complex signal Z-score” value was 1.77.

Consider `O=C(O)c1ccccc1Nc1cccc(C(F)(F)F)c1`, for which the “AlphaScreen HuR-RNA complex signal Z-score” value was 0.622.

Turning to `CC(=O)Nc1ccc(S(=O)(=O)c2ccc(NC(C)=O)cc2)cc1`, the “AlphaScreen HuR-RNA complex signal Z-score” value was found to be 0.0324.

For `O=C1O[C@H]([C@@H](O)CO)C(O)=C1O`, the “AlphaScreen HuR-RNA complex signal Z-score” value was 0.39.

Consider `Clc1ccc(C(c2ccccc2Cl)C(Cl)Cl)cc1` (configuration not stated), for which the “AlphaScreen HuR-RNA complex signal Z-score” value is 0.315.

Take `C[C@@H]1CC[C@@]2(OC1)O[C@H]1C[C@H]3[C@@H]4CC=C5C[C@@H](O)CC[C@]5(C)[C@H]4CC[C@]3(C)[C@H]1[C@@H]2C`: the “AlphaScreen HuR-RNA complex signal Z-score” value stood at 1.08.

Consider `CC(=O)Oc1cc(C)c2c(c1C=O)Oc1c(c(C)c(OC(C)=O)c3c1C(OC(C)=O)OC3=O)OC2=O` (configuration not stated), for which the “AlphaScreen HuR-RNA complex signal Z-score” value is -0.324.

`Nc1ccc(C(=O)O)c(O)c1`: the “AlphaScreen HuR-RNA complex signal Z-score” value was found to be 0.112.

With `Cc1c(S(=O)(=O)O)oc2c1C(=O)C(=O)c1c-2ccc2c1CCCC2(C)C`, the “AlphaScreen HuR-RNA complex signal Z-score” value was 1.59.

As to `NCCCS(=O)(=O)O`, the “AlphaScreen HuR-RNA complex signal Z-score” value is 1.66.

In the case of `Nc1nc(/C(=C/CC(=O)O)C(=O)N[C@@H]2C(=O)N3C(C(=O)O)=CCS[C@H]23)cs1`, the “AlphaScreen HuR-RNA complex signal Z-score” value was determined as 2.58.

As to `O=C(/C=C/c1ccccc1)c1ccc(O)cc1`, the “AlphaScreen HuR-RNA complex signal Z-score” value came out at 0.656.

For `CN(C)CCOC(=O)C(c1ccccc1)C1(O)CCCC1` (configuration not stated), the “AlphaScreen HuR-RNA complex signal Z-score” value is -3.29.

Take `Nc1ccc(/N=N/c2ccccc2)c(N)n1`: the “AlphaScreen HuR-RNA complex signal Z-score” value is -2.12.

Regarding `CCN(CC)CCNC(=O)c1cc(Br)c(N)cc1OC`, the “AlphaScreen HuR-RNA complex signal Z-score” value is 1.01.

For the compound `CCCCC(=O)N(Cc1ccc(-c2ccccc2-c2nnn[nH]2)cc1)[C@H](C(=O)O)C(C)C`, the “AlphaScreen HuR-RNA complex signal Z-score” value was found to be 2.89.

`C[C@H]1C(=O)CC[C@@H]2[C@]1(C)CC[C@H]1[C@@]2(C)CC[C@@]2(C)[C@@H]3CC(C)(C)CC[C@]3(C)CC[C@]12C`: the “AlphaScreen HuR-RNA complex signal Z-score” value came out at 2.73.

As to `OC(CCN1CCCCC1)(c1ccccc1)c1ccccc1`, the “AlphaScreen HuR-RNA complex signal Z-score” value is 2.28.

`O=C1c2cccc(O)c2C(=O)c2c(O)cccc21`: the “AlphaScreen HuR-RNA complex signal Z-score” value is 0.315.

In the case of `CCOC(N)=O`, the “AlphaScreen HuR-RNA complex signal Z-score” value turned out to be 0.553.

For `CCCCCCCCCCCC[C@@H](C(=O)O)[C@H](C)C(=O)O`, the “AlphaScreen HuR-RNA complex signal Z-score” value was 2.42.

Turning to `O=C(O)c1cc(=O)c2ccccc2[nH]1`, the “AlphaScreen HuR-RNA complex signal Z-score” value was determined as 0.654.

Take `O=C(O)CCC(=O)c1ccc(-c2ccccc2)cc1`: the “AlphaScreen HuR-RNA complex signal Z-score” value stood at 0.62.

On to `C[C@H]1[C@H](C)CC[C@]2(C(=O)O)CC[C@]3(C)C(=CC[C@@H]4[C@@]5(C)C[C@@H](O)[C@H](O)[C@@](C)(CO)[C@@H]5[C@H](O)C[C@]43C)[C@H]12`, for which the “AlphaScreen HuR-RNA complex signal Z-score” value was 1.44.

Turning to `CN1CCN2c3ccccc3Cc3ccccc3C2C1` (configuration not stated), the “AlphaScreen HuR-RNA complex signal Z-score” value was 3.29.

Consider `N[C@@H](Cc1ccc(O)c(O)c1)C(=O)O`, for which the “AlphaScreen HuR-RNA complex signal Z-score” value was found to be 2.63.

On to `CCC(C)C(NC)C(=O)O` (configuration not stated), for which the “AlphaScreen HuR-RNA complex signal Z-score” value was 1.78.

For the compound `Cc1nc2sccn2c(=O)c1CCN1CCC(=C(c2ccc(F)cc2)c2ccc(F)cc2)CC1`, the “AlphaScreen HuR-RNA complex signal Z-score” value came to 0.764.

As for `CO[C@H]1C[C@H](O[C@@H]2/C(C)=C/C[C@@H]3C[C@@H](C[C@]4(CC[C@H](C)[C@@H](C5CCCCC5)O4)O3)OC(=O)[C@@H]3C=C(C)/C(=N/O)[C@H]4OC/C(=C\C=C\[C@@H]2C)[C@]43O)O[C@@H](C)[C@@H]1O`, the “AlphaScreen HuR-RNA complex signal Z-score” value came out at 1.15.

Regarding `O=C1c2c(O)ccc(O)c2C(=O)c2c(NCCNCCO)ccc(NCCNCCO)c21`, the “AlphaScreen HuR-RNA complex signal Z-score” value was -2.01.

As for `COc1cc(O)cc(OC)c1OC`, the “AlphaScreen HuR-RNA complex signal Z-score” value came out at 1.37.

In the case of `O=C(NC(Cc1cc(=O)[nH]c2ccccc12)C(=O)O)c1ccc(Cl)cc1` (configuration not stated), the “AlphaScreen HuR-RNA complex signal Z-score” value was -0.249.

Take `CC(C)(C)NC[C@H](O)COc1cccc2c1CCCC2=O`: the “AlphaScreen HuR-RNA complex signal Z-score” value is -2.51.

As for `C[N+](C)(C)CCOC(N)=O`, the “AlphaScreen HuR-RNA complex signal Z-score” value stood at 0.31.
